Laboratory results from patent US20260265184A1, “DEGRADABLE CROSSLINKING AGENT” (NAGASE CHEMTEX CORPORATION, priority 2023, published 2026).
Some results were stated once for a whole list of compounds, not compound by compound.

Experiment: Solvent solubility evaluation of the degradable cross-linking agents
Type: physicochemical
Settings: summary over the solvents of Tables 1 and 2
Source text: The degree of dissolution was visually observed. When an undissolved portion remained at room temperature, the mixture was sufficiently heated with a heat gun and then visually observed again. The scoring was as follows: 3 points for those that completely dissolved at room temperature; 2 points for those in which an undissolved portion remained at room temperature but completely dissolved after heating; 1 point for those in which a slight amount of an undissolved portion remained after heating; and 0 points for those in which a large amount of an undissolved portion remained after heating. Here, the degradable cross-linking agents in liquid form were evaluated for compatibility with the solvents.

C=CCNC(=O)NNC(=O)CCCCCCCCC(=O)NNC(=O)NCC=C [Formula (B)]
Solvent solubility, overall assessment in words: soluble in a plurality of the solvents

C=CCOC(=O)NNC(=O)NCCCCCCNC(=O)NNC(=O)OCC=C [Formula (C)]
Solvent solubility, overall assessment in words: soluble in a plurality of the solvents

C=CCOC(=O)NNC(=O)CCCCCCCCC(=O)NNC(=O)OCC=C [Formula (D)]
Solvent solubility, overall assessment in words: soluble in a plurality of the solvents

C=CCOC(=O)NNC(=O)CCCO [Formula (G)]
Solvent solubility, overall assessment in words: soluble in a plurality of the solvents

C=C(C)C(=O)OCCNC(=O)NNC(=O)c1cc(O)cc(O)c1 [Formula (I)]
Solvent solubility, overall assessment in words (listed as Example 8): soluble in a plurality of the solvents

O=C(CCS)NNC(=O)NCCCCCCNC(=O)N(CCCCCCNC(=O)NNC(=O)CCS)C(=O)NCCCCCCNC(=O)NNC(=O)CCS [Formula (J)]
Solvent solubility, overall assessment in words (listed as Example 9): soluble in a plurality of the solvents

C=CCOC(=O)NNC(=O)CCC(NC(=O)NNC(=O)CCCC(=O)NNC(=O)NC(CCC(=O)NNC(=O)OCC=C)C(=O)NNC(=O)OCC=C)C(=O)NNC(=O)OCC=C (centres unmarked) [Formula (L)]
Solvent solubility, overall assessment in words: soluble in a plurality of the solvents

O=C(CCCCCOC(=O)NNC(=O)OCCO)NNC(=O)c1cccc(C(=O)NNC(=O)CCCCCOC(=O)NNC(=O)OCCO)c1 [Formula (M)]
Solvent solubility, overall assessment in words: soluble in a plurality of the solvents
